# Experimental data as given in the supplement of paper PMC3334620.
# Over roughly 33,000 sequences, “E-score (-0.5 to 0.5)” has its median near -8e-05; the highest 2% begin near 0.23. The list shows a part of the results.
# Target: T1, Nrg2 (UniProt P38082)
# T1 sequence: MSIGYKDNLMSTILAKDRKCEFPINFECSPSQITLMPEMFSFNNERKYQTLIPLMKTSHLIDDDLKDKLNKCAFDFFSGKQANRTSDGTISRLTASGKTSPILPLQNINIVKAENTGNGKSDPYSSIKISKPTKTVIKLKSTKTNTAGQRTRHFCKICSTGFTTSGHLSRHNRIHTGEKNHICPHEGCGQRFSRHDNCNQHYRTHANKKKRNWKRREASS
# Assay: PBM E-score (8-mer binding enrichment) (E-score (-0.5 to 0.5)); higher = stronger / more preferred TF binding
# Details: protein concentration: 100 nM; construct: GST-full length
# Outline: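 Detection of bound protein used fluorescent anti-GST, with scans normalised by masliner. The proteins were GST-tagged yeast transcription factors applied at about 100-200 nM to universal all-10-mer Agilent arrays made double-stranded by primer extension. Each ungapped eight-base word, pooled with its reverse complement, was scored with an E-score from the Universal PBM Analysis Suite.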
row,Sequence,PBM E-score
1,TGCGTGAA,-0.0489
2,AAGGGGTA,-0.00105
3,AACACCGA,-0.0363
4,GCTACCAC,-0.164
5,AGGTGCAT,-0.0173
6,CAGCTGTC,0.218
7,AGACATGC,-0.289
8,AACTCTCC,-0.0395
9,AAACTCAT,0.108
10,AGCCACAC,0.00029
11,CTGATACA,-0.0801
12,CGACTACG,-0.152
13,CGCAGATC,-0.0771
14,CGAGTCAA,-0.168
15,TAAACTCA,0.117
16,CGGCGCCG,0.25
17,AAGCCTAA,-0.0846
18,ATGCATGA,0.0186
19,CTAGACTC,-0.296
20,CAATTGTG,0.124
21,AAGTCTCC,-0.279
22,CATGAGCA,-0.0345
23,ATACCGTC,0.112
24,CAATTGAA,-0.0796
25,GTTATGAA,0.0794

row,Sequence,PBM E-score
1,ACGTGCAG,0.0146
2,CCGTTGCA,-0.0568
3,CGCTGAAG,-0.109
4,ACCTACCG,-0.0788
5,GAGTCATC,-0.00226
6,AACTCCTT,0.00645
7,CTGGATGC,-0.0825
8,GCCACCCA,-0.0959
9,ATCAATTG,0.15
10,CTCTTTGA,-0.118
11,ACCTCGCG,0.116
12,ATGAAGGA,0.113
13,GACAACGC,-0.0597
14,AAGAATCG,0.0744
15,CCTGATGA,0.165
16,AGCGTCAG,-0.0467
17,ACTTCGTA,-0.0963
18,ACTTACCC,0.0108
19,TAAGCCGA,0.072
20,AAGTGAGC,-0.0445
21,ACGACCTG,-0.231
22,CCCACACA,0.037
23,GGGGATGA,0.067
24,ACTTCTGA,0.148
25,CAAACAAC,0.14

row,Sequence,PBM E-score
1,ATAAACCC,0.307
2,GTAAGCTA,0.184
3,ACTACCTC,-0.0255
4,CACAAAAA,0.131
5,CACTAGCC,0.0235
6,ATGTGCAA,-0.00357
7,ATATGAAG,-0.0307
8,GCTGGTTA,0.00215
9,CATACCAG,-0.0622
10,ATGTCGCC,-0.0301
11,AAAGTTAG,0.226
12,TAAGTAAA,-0.00741
13,AGGAAATG,0.00239
14,AACAGCTC,-0.126
15,GCGCCCCA,0.146
16,AGCAGGTG,0.0329
17,ACGATTAT,0.0891
18,AACCGCCT,-0.0624
19,ACAGTTTG,0.0285
20,AAGCTAAA,0.0399
21,CAGTTGCG,0.152
22,AGCGGGCA,-0.267
23,CGGTCACC,-0.194
24,ATTTTGAG,0.0761
25,CAAATGGA,-0.0362

# Reformatted as tab-separated lines: entries from further up.
row	Sequence	PBM E-score
5	CACTAGCC	0.0235
7	ATATGAAG	-0.0307
14	AACAGCTC	-0.126
15	GCGCCCCA	0.146
23	CGGTCACC	-0.194

# (cont.)

row,Sequence,PBM E-score
1,CAAGCCAG,-0.0229
2,AGCCTATC,-0.125
3,ACTGTACG,0.0573
4,ACACTGGT,0.015
5,ATAACGTG,0.0373
6,AATCCACC,0.0397
7,CGAGCCAG,0.00961
8,CCGTACAA,-0.0184
9,CGTGCTCC,-0.0464
10,GCTCCATA,-0.0854
11,ACCCCGGG,-0.056
12,GGGAGTCA,-0.194
13,ATTATCGG,-0.142
14,GACAGAAC,0.15
15,ACCCCATG,0.217
16,ATAACCAT,-0.0483
17,CTGCAAGA,0.027
18,CAAAGAAA,0.0775
19,TTCCGGAA,-0.0157
20,AAATCCGT,-0.0623
21,GACTCTCC,-0.123
22,GACTGACA,0.0589
23,AAGCTACT,0.0546
24,ATTCGGTG,-0.0414
25,AGAGTCCA,0.0952

row,Sequence,PBM E-score
1,ACCTTGCG,0.0985
2,CTACCGGC,-0.136
3,AGTCACGA,-0.102
4,CTCTCACA,0.124
5,CCGGAGGC,-0.299
6,CGTTACTA,-0.00046
7,AAGCGCTC,0.0396
8,CTGTGAGA,-0.0945
9,GTGTGCCA,-0.0505
10,ATTATCCG,0.102
11,AAGTCAAT,0.0717
12,ATTCCTAC,-0.03
13,AGCGCTAT,0.216
14,AAGACCGA,-0.018
15,GCAGTTCA,0.0604
16,CGTTCTGA,-0.144
17,CCGGGTTA,-0.137
18,CAGGTTTC,0.191
19,AGAACTCG,0.0238
20,ACATACCA,-0.15
21,CTCATTCC,0.00679
22,GGTCGGGA,0.114
23,ACGTAACT,-0.167
24,CCGGATCG,-0.0652
25,ATTGCGGG,0.13

row,Sequence,PBM E-score
1,AACGTTAT,0.0154
2,GATGACGC,0.0101
3,AGTATTTG,-0.0158
4,AGAGCAAC,-0.153
5,GAAAGACA,0.186
6,CGCATGGC,0.0447
7,CGGCAATC,-0.0308
8,TAGTAACA,0.146
9,AAATTGTA,0.0349
10,GCAGCTTA,0.00295
11,CCCCAAGA,0.133
12,ACGAGTTA,0.119
13,ATTGTATG,0.133
14,AATGCCTC,0.0271
15,CAGCCGTC,-0.00512
16,CGCTATTC,0.0887
17,GTCTTGTA,-0.0471
18,ATCTGGCC,-0.0845
19,ATACCGCC,-0.0749
20,TAATTGCA,0.108
21,GTCTAGAC,-0.115
22,CCTCCCAC,-0.139
23,TAATGGTA,0.00182
24,GTAAGTAC,-0.086
25,CTTATGCA,0.058

row,Sequence,PBM E-score
1,AGATTACC,0.00574
2,ACCAAATC,-0.0228
3,AGGTTCTC,0.0154
4,CTTCGGCA,-0.077
5,GCCTGCTA,-0.177
6,CCACCCAC,0.0597
7,AGTGAGGC,-0.0681
8,AGCACGAA,0.199
9,GACATATA,0.0429
10,TCAAACGA,-0.0605
11,CACGGACA,0.0646
12,TACTGCGA,-0.044
13,AGGCCCCT,0.0783
14,CATTTTAC,0.194
15,ATTCATTC,0.181
16,AGACATCC,-0.0665
17,AGCCATAA,0.0366
18,GAGACTTA,-0.17
19,AAGCGTAA,-0.133
20,CTCCATGA,0.072
21,AGAAGTCA,0.143
22,CTCCTGCA,-0.117
23,AGGCGCGC,0.0865
24,ATACTGTC,0.256
25,ATGTTTAA,-0.114

row,Sequence,PBM E-score
1,AGAGAACG,-0.0754
2,GAGTCTAA,-0.0937
3,CGGCTACG,-0.157
4,ACAAAGGG,-0.00555
5,CGACAGAA,0.158
6,CGTGTTAA,0.0118
7,GGCACACA,-0.166
8,CATCCGAG,-0.0567
9,CGTGCCAC,-0.0584
10,GCTTTCAA,0.0938
11,ACAGGCTC,-0.159
12,ATTGCTAG,0.007
13,GGAGCTCA,-0.0201
14,GGGGTAAC,-0.0962
15,CGGTTCAA,-0.0731
16,AGCGTGGA,-0.198
17,ATCACAAA,0.0935
18,GCCAGGGA,0.207
19,CTCAGAAC,0.0823
20,AGTCCTTA,-0.115
21,CCGTTAAA,-0.0965
22,CACAGCCG,-0.00785
23,AACATCGA,0.106
24,ATACGTTC,-0.138
25,CAAATCGA,-0.0125

# Exported bar-delimited: entries from further up
row | Sequence | PBM E-score
13 | GGAGCTCA | -0.0201
21 | CCGTTAAA | -0.0965

# Following part.

row,Sequence,PBM E-score
1,ACTCTATC,-0.0468
2,GGTGCTTA,-0.105
3,CCGCAATA,0.206
4,CAACAAAG,0.132
5,ACCCGGCA,-0.028
6,GACGCCGC,-0.068
7,GATACGAA,0.0113
8,ACAGTACG,0.149
9,ATGCGCAT,0.368
10,ATCGGGCG,-0.0126
11,AATAGTAC,-0.0053
12,CGATGAGC,-0.0638
13,CGTACGAG,-0.081
14,CGTTTGAA,0.00719
15,AAGGTGGC,-0.132
16,CTATGAAG,-0.0859
17,GCGTGAAC,-0.0729
18,AGTAAAAA,0.0662
19,GCTCTGTA,-0.0163
